{"sequences": {"note": "Sequences of proteins named here, by UniProt entry; tags and fusion partners are left off. A change or cut given only in a name is not applied to a line headed by its entry.", "UniProt P23771": "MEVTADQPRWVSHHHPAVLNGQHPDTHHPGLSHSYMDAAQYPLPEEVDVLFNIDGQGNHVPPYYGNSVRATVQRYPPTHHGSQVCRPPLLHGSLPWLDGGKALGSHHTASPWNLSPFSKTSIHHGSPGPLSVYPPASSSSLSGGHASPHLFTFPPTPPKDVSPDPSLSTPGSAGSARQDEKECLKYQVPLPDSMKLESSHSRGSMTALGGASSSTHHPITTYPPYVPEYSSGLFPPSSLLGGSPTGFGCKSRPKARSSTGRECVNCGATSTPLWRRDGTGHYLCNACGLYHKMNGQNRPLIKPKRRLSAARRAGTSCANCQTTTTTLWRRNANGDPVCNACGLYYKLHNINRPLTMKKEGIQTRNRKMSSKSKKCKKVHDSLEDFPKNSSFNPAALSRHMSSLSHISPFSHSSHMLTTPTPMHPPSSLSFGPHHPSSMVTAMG"}, "source": "paper PMC4761948", "key": {"GCM1-FLAG": {"molecular_target": "T1, GCM1-FLAG (UniProt Q9NP62)", "T1 sequence (looked up, limits assumed)": "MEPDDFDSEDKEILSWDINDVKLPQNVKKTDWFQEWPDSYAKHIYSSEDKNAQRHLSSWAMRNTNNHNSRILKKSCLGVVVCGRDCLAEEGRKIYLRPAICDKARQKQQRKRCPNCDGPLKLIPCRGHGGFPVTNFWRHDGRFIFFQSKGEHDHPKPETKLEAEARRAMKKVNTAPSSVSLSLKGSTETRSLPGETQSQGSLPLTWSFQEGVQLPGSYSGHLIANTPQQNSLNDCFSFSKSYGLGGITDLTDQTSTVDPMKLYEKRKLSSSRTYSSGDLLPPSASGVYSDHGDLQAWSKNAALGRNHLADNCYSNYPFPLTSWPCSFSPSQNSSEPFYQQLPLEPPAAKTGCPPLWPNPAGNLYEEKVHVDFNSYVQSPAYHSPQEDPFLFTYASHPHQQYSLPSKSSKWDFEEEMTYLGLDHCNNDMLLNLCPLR", "assay": "EMSA", "conditions": "20 ng GCM1-FLAG, 2 ng probe, binding not affected by 20-60 ng GATA3-FLAG; EMSA as previously described (buffer, salt, pH, temperature not given); 5% nondenaturing polyacrylamide gel; recombinant protein; protein details: FLAG; label: radiolabeled"}, "[1]": {"molecular_target": "GATA3-FLAG (Homo sapiens) (UniProt P23771)", "assay": "EMSA", "conditions": "20 ng GATA3-FLAG alone, 2 ng probe; EMSA as previously described (buffer, salt, pH, temperature not given); 5% nondenaturing polyacrylamide gel; recombinant protein; protein details: C-terminal 3xFLAG; label: radiolabeled"}}, "note": "The exact form of at least one protein or probe is not confirmed. For some assays here: A negative result means that nothing was seen under these conditions. For some assays here: Protein sequences can lack the tags named with them.", "data": [{"sequence": "CAGTCTGCCCTCATTGTCGG (double strand) [HtrA4-GBS]", "values": [{"measurement": "binding result", "setting": "GCM1-FLAG", "value": "binds"}, {"measurement": "binding result", "setting": "[1]", "value": "no binding"}]}]}
